Experimental data from the supplement of paper PMC3334620.
In all, about 33,000 sequences were measured (“E-score (-0.5 to 0.5)”: median about -8e-05, highest 2% from about 0.23 on). The list shows a part of the results.

target: T1, Nrg2 (UniProt P38082); assay: PBM E-score (8-mer binding enrichment) (E-score (-0.5 to 0.5)); higher = stronger / more preferred TF binding; settings: protein concentration: 100 nM; construct: GST-full length
T1 sequence: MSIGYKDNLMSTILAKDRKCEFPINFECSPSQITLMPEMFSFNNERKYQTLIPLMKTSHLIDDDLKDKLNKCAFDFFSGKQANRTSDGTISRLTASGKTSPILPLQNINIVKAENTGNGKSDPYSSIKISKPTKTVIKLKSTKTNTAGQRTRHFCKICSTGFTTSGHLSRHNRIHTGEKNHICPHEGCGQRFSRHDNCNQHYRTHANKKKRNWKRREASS
Protocol: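 Universal 'all 10-mer' protein binding microarrays (Agilent AMADID 015681) probed with GST-tagged S. cerevisiae TFs (full-length or DBD) made by in vitro transcription/translation (PURExpress), about 100-200 nM. Bound TF was detected with fluorescent anti-GST. Each ungapped 8-mer (which stands for itself and its reverse complement) is scored by the PBM enrichment score (E-score), a modified Wilcoxon-Mann-Whitney statistic from -0.5 to +0.5, computed with the Universal PBM Analysis Suite. Scale: above 0.35 generally sequence-specific binding.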

| Sequence | PBM E-score |
| --- | --- |
| CGGATCAC | 0.112 |
| GCCTTACA | -0.264 |
| TATGCTAA | -0.0727 |
| CCACCGTC | -0.224 |
| AGTAAGCG | 0.0471 |
| AAGTTCTC | 0.0924 |
| CCCTTTAA | 0.109 |
| TATACGGA | -0.0587 |
| AGACAGCC | -0.141 |
| CTGAACGA | -0.166 |
| CACGCCTG | -0.146 |
| AAGTACCG | -0.0239 |
| CGCATTGC | 0.148 |
| ATGCCGTA | 0.0168 |
| ATCGAAGA | 0.193 |
| CTCCTCTC | -0.123 |
| GCCCCCAC | -0.384 |
| CGTAATAA | 0.0437 |
| TTCCACAA | 0.206 |
| TACAGCCA | 0.0383 |
| CGTATCGC | -0.0619 |
| CGCACTAA | 0.0898 |
| ACGAGGAC | -0.0285 |
| AGGCGTGA | -0.174 |
| CAAGGCAG | 0.0797 |

| Sequence | PBM E-score |
| --- | --- |
| TGGCGTAA | -0.195 |
| CCTCAAGG | -0.106 |
| AAAGAGGC | -0.228 |
| CGATCCAC | -0.0637 |
| ATGCAGGC | -0.0578 |
| ATTCCACC | 0.0335 |
| AAGGGAAT | 0.0163 |
| ACTGACAC | -0.0104 |
| GAGCCGAA | 0.01 |
| CCCACGAA | 0.197 |
| CTTAGGAC | -0.204 |
| AGTGTTTG | 0.174 |
| TACTAGCA | 0.0982 |
| TCCAGTAA | -0.0742 |
| CTTCTCGC | 0.0525 |
| CGGCTGAC | -0.0354 |
| AGCTACAC | 0.0938 |
| AGCGAACG | -0.156 |
| GATACAGA | 0.13 |
| CGGTTGCA | -0.119 |
| ACGAATCG | 0.0934 |
| CGGAGCCG | -0.161 |
| GATACCTA | 0.256 |
| ATCATGAG | 0.0545 |
| CGTTTCTA | -0.0503 |

| Sequence | PBM E-score |
| --- | --- |
| ATTTCGCC | 0.0633 |
| CATGCCAG | -0.0766 |
| GAAGGTGC | -0.137 |
| CGCTTAGA | -0.0508 |
| GTTCTCTA | -0.154 |
| CATCGCCA | 0.103 |
| GATATCTA | 0.0972 |
| AAACCCTT | 0.0879 |
| AACTGGCC | 0.0516 |
| CCAAGATA | 0.00687 |
| AGCGTTAT | -0.0753 |
| ACGATGTC | 0.0434 |
| TCGATCGA | 0.162 |
| ACATTTAG | -0.279 |
| GCTCGCGA | 0.137 |
| GATAGGTA | 0.152 |
| AATCCTGG | -0.0611 |
| CGCCGTGC | 0.0708 |
| CCGTGAGG | -0.22 |
| CGATACTC | 0.0984 |
| CCCAGGCA | -0.222 |
| AACGGCCG | 0.139 |
| AACCTCTC | -0.0955 |
| AGACGTAC | -0.144 |
| TGTTAGAA | -0.0164 |

| Sequence | PBM E-score |
| --- | --- |
| ACACCTAT | 0.0366 |
| GTATAAAA | 0.153 |
| GCCTCTCA | -0.107 |
| CATCCCGA | -0.0993 |
| GGCTGGGA | -0.2 |
| GGTTTCAC | 0.098 |
| GTAACTTA | 0.138 |
| TCGTTAGA | -0.162 |
| ACGAGTGA | -0.0665 |
| ACAACATG | 0.051 |
| ATGCGGAG | -0.173 |
| AGTTCTAT | -0.0788 |
| CTGTTGGC | -0.0852 |
| ATATATTA | 0.245 |
| GTGAACAC | -0.2 |
| GGCGCGAA | 0.144 |
| AGTGACCA | 0.0777 |
| AGTAAGTG | -0.0161 |
| TCTTAGCA | -0.0976 |
| ACACGCAC | -0.0409 |
| ACACTGTG | -0.0298 |
| AAAGGGGA | -0.0462 |
| TCCGAACA | -0.00282 |
| CGCGCGAC | 0.163 |
| CAGAAGGG | -0.145 |

| Sequence | PBM E-score |
| --- | --- |
| CCGCCAGA | -0.0239 |
| ACGCCACG | -0.27 |
| GACACACA | 0.0486 |
| ATCCGCCC | -0.0028 |
| CAGCAGCC | 0.0863 |
| CCCATGCC | -0.0378 |
| AACACCTA | -0.12 |
| CACGCAAC | 0.196 |
| ACGGTCAC | -0.109 |
| GCTACCCC | -0.182 |
| CGTACCAC | -0.126 |
| CTAATTCC | -0.0504 |
| AGTCACGG | -0.0953 |
| AGGCGCAT | 0.0565 |
| CACACGCC | 0.0321 |
| CGCTTTGC | 0.0756 |
| GTCTTCTA | 0.0181 |
| CAAGCGCG | 0.0189 |
| GGCTAATA | 0.0596 |
| AGAAAGGG | 0.0632 |
| CGAGATCC | 0.0418 |
| ACAAGCTG | 0.143 |
| AGGAGGTG | -0.234 |
| ATCGAGAA | 0.146 |
| GCGTAGCC | -0.215 |

As entered above.
Value of AACCTCTC under PBM E-score: -0.0955
Value of CCCACGAA under PBM E-score: 0.197
Value of AACGGCCG under PBM E-score: 0.139
Value of TCCGAACA under PBM E-score: -0.00282
Value of CGGTTGCA under PBM E-score: -0.119
Value of ATCCGCCC under PBM E-score: -0.0028

More entries:

| Sequence | PBM E-score |
| --- | --- |
| CATGGTCA | 0.236 |
| CACCTAAA | -0.151 |
| AAGCAGTA | -0.0813 |
| CTGGCCGA | -0.163 |
| ACAATGGC | 0.0291 |
| GTACTGAA | 0.118 |
| AGACTTGC | -0.157 |
| CGGATCCC | -0.0591 |
| ACGCGTCC | -0.0132 |
| AGCATTTA | -0.232 |
| CTGGCAGC | -0.247 |
| CAAAATCG | 0.109 |
| GATAGGCC | -0.0419 |
| GATTACCC | 0.117 |
| ACGTCCCG | 0.0264 |
| CCTAAGGC | -0.191 |
| GACCCGAA | -0.0012 |
| AGTTCTGG | 0.0746 |
| CAATCATC | -0.0186 |
| GCGAGACA | -0.117 |
| GATTCGCA | 0.121 |
| CAATCATG | 0.0231 |
| ACCATGCA | 0.132 |
| AAGCCCAC | -0.14 |
| CTTCGCCA | -0.0564 |

| Sequence | PBM E-score |
| --- | --- |
| ACCGCCAT | 0.103 |
| CAATAATA | 0.117 |
| CCCAAACC | 0.0648 |
| CAGCCTTA | -0.231 |
| AAGTGGAA | 0.196 |
| CGAACCTC | -0.037 |
| ACTGGGCC | -0.132 |
| AACGGTGC | -0.0929 |
| AGCACCGC | 0.111 |
| AGCTGAAG | 0.0197 |
| AGGTGTTG | -0.0259 |
| TAGAAGCA | -0.0984 |
| GGAGTGAA | 0.0356 |
| GTGTCGGA | -0.00845 |
| TCATTCAA | 0.0872 |
| AACCATAA | 0.0871 |
| ACCGCACC | 0.0861 |
| CTGAGGGA | 0.0137 |
| GCAGTTTA | -0.0555 |
| GTACGCAA | -0.131 |
| CCCAAGTA | 0.0104 |
| CCCGGCAC | -0.331 |
